Results are given in words; binding and its absence hold for the method and conditions named. Binding seen in cells or lysates may run through a third protein. A yes stands for co-enrichment or nearness to the bait. Other partners may have been found. For some of these results: A no says only that the protein was not detected with the bait. For some of these results: Where a sequence is shown, tags or fusion partners need not be part of it.
How the values were obtained:
[1] = target: T1, PP2AB′α-YFP-TbID (PP2A regulatory subunit B′α fused with YFP and TurboID) (Arabidopsis thaliana) (UniProt O04375); test: proximity labelling; TurboID fusion co-expressed with BZR1-MH in N. benthamiana leaves; 50 µM biotin for 3 h; extract desalted; streptavidin pulldown; immunoblot with anti-Myc
T1 sequence: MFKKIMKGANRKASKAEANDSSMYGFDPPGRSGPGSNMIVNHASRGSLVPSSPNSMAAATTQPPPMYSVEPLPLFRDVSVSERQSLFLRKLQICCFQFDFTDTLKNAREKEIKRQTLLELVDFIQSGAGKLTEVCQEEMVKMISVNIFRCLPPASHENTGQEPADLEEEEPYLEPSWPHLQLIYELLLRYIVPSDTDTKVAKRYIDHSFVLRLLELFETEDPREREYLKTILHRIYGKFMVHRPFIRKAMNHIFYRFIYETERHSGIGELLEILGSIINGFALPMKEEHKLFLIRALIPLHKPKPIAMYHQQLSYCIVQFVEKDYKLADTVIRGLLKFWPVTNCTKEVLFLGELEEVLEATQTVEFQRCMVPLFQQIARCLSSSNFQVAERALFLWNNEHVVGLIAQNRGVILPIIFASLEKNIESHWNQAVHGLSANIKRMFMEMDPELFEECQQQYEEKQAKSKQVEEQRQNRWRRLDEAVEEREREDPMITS

Sequences of proteins named here, by UniProt entry; tags and fusion partners are left off.
UniProt Q39011: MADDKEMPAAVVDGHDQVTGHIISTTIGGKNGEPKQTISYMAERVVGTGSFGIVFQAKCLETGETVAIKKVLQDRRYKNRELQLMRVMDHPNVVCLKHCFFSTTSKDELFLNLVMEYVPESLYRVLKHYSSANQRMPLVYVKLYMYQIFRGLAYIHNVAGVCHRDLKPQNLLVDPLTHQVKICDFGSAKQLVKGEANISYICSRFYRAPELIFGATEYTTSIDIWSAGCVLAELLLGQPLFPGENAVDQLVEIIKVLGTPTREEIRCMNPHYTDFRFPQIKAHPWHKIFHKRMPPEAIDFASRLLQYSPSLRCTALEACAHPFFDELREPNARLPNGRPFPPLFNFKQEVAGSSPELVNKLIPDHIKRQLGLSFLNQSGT
UniProt Q8S307: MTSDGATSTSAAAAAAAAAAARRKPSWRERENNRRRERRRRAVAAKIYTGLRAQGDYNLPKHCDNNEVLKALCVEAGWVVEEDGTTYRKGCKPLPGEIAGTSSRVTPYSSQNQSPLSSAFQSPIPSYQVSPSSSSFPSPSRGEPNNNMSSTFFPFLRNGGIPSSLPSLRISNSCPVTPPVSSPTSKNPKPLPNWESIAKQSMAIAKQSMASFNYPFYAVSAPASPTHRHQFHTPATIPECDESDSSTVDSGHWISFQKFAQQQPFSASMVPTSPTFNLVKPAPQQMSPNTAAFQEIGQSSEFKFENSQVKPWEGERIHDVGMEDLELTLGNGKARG

[2] = target: T2, PP2AB′ε-YFP-TbID (PP2A regulatory subunit B′ε fused with YFP and TurboID) (Arabidopsis thaliana) (UniProt Q9SV41); test: as above
T2 sequence: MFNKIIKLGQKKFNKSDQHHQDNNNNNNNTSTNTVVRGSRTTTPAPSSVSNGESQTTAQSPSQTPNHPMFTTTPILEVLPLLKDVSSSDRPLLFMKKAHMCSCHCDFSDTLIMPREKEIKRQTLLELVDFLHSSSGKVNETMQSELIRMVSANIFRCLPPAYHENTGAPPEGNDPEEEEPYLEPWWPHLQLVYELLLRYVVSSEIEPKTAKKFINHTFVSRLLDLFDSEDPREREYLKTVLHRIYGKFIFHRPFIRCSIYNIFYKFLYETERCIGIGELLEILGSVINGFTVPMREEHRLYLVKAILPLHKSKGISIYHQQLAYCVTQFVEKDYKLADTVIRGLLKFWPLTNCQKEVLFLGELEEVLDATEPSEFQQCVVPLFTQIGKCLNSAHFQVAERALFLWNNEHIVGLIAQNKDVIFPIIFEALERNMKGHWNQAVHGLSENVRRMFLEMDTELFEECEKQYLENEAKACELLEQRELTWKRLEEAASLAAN

[3] = target: BIN2-YFP-TbID (full-length BIN2 fused with YFP and TurboID), in transgenic Arabidopsis (Arabidopsis thaliana) (UniProt Q39011); test: proximity labelling; TbPL-MS: transgenic Arabidopsis seedlings with BIN2-YFP-TbID against YFP-YFP-TbID control, 14N/15N labelling, 50 µM biotin for 3 h, desalting, streptavidin beads, on-bead digestion, LC-MS/MS; BIN2-proximal: ratio >=3 in at least three of four replicates

## BZR1-MH (BZR1 fused with 4×Myc-6×His tag) (from UniProt Q8S307 1-336)
[1]
  binding: binds
[2]
  binding: no binding

B1: BSL3 (protein, UniProt Q9SHS7 1-1006)
chain: MDLDSSMVPENDQDPIATSENQSPMEEKEEASEQQTGSESESASLTPSLPPPSQQQQQQQQQPQVTAVVGPRCAPTYSVVNAIIEKKEDGPGPRCGHTLTAVPAVGEEGTSSYIGPRLILFGGATALEGNSGGTGTPTSAGSAGIRLAGATADVHCYDVLSNKWSRLTPYGEPPSPRAAHVATAVGTMVVIQGGIGPAGLSAEDLHVLDLTQQRPRWHRVVVQGPGPGPRYGHVMALVGQRYLMAIGGNDGKRPLADVWALDTAAKPYEWRKLEPEGEGPPPCMYATASARSDGLLLLCGGRDANSVPLASAYGLAKHRDGRWEWAIAPGVSPSARYQHAAVFVNARLHVSGGALGGGRMVEDSSSVAVLDTAAGVWCDTKSVVTSPRTGRYSADAAGGDASVELTRRCRHAAAAVGDLIFIYGGLRGGVLLDDLLVAEDLAAAETTSAASHAAAAAAATNTPPGRSPGRYGFSDERTGELPESAPDAVVLGSPVAPPVNGDMYTDISTENAMVPGIRRTSKGVEYLVEASAAEAEAISATLAAAKARQVNGEVELPDRDRGAEATPSGKPSLSLIKPDSAVPNSVIPAGVRLHHRAVVVAAETGGALGGMVRQLSIDQFENEGRRVSYGTPESATAARKLLDRQMSINSVPKKVVAHLLKPRGWKPPVRRQFFLDCNEIADLCDSAERIFSSEPTVLQLKAPIKIFGDLHGQFGDLMRLFDEYGSPSTAGDISYIDYLFLGDYVDRGQHSLETITLLLALKVEYQHNVHLIRGNHEAADINALFGFRIECIERMGERDGIWVWHRINRLFNWLPLAALIEKKIICMHGGIGRSINHVEQIENIQRPITMEAGSIVLMDLLWSDPTENDSVEGLRPNARGPGLVTFGPDRVMEFCNNNDLQLIVRAHECVMDGFERFAQGHLITLFSATNYCGTANNAGAILVLGRDLVVVPKLIHPLPPAITSPETSPERHIEDTWMQELNVNRPPTPTRGRPQNPNDRGSLAWI
[3]
  binding: binds

B2: MCCA (protein, UniProt Q42523 26-734)
chain: SGSASMKPKEQCIEKILVANRGEIACRIMRTAKRLGIQTVAVYSDADRDSLHVKSADEAVRIGPPSARLSYLSGVTIMEAAARTGAQAIHPGYGFLSESSDFAQLCEDSGLTFIGPPASAIRDMGDKSASKRIMGAAGVPLVPGYHGHEQDIDHMKSEAEKIGYPIIIKPTHGGGGKGMRIVQSGKDFADSFLGAQREAAASFGVNTILLEKYITRPRHIEVQIFGDKHGNVLHLYERDCSVQRRHQKIIEEAPAPNISEKFRANLGQAAVSAARAVGYYNAGTVEFIVDTESDQFYFMEMNTRLQVEHPVTEMIVGQDLVEWQIRVANGEPLPLSQSEVPMSGHAFEARIYAENVPKGFLPATGVLNHYRPVAVSPSVRVETGVEQGDTVSMHYDPMIAKLVVWGGNRGEALVKLKDCLSNFQVAGVPTNINFLQKLASHKEFAVGNVETHFIEHHKSDLFADESNPAATEVAYKAVKHSAALVAACISTIEHSTWNESNHGKVPSIWYSNPPFRVHHEAKQTIELEWNNECEGTGSNLISLGVRYQPDGSYLIEEGNDSPSLELRVTRAGKCDFRVEAAGLSMNVSLAAYLKDGYKHIHIWHGSEHHQFKQKVGIEFSEDEEGVQHRTSSETSSHPPGTIVAPMAGLVVKVLVENEAKVDQGQPILVLEAMKMEHVVKAPSSGSIQDLKVKAGQQVSDGSALFRIKG
[3]
  binding: no binding
